# “And” between values parts separate entries of the source, which are not always exact repeats. Identical values can stand only once. This list was built around the results that the source calls inconclusive (neither active nor inactive); the mix of calls is not that of the screen. For some assays here: Where the call is inconclusive, the potency comes from a doubtful curve fit. For some assays here: “Side channel” marks fits to a control or component signal instead of the main read-out. The source made the active and inactive calls. Unless noted, the call rests on the fitted dose curve; in most records, active means well fitted curve in the direction sought with a large enough effect; inconclusive means small, poorly fitted or top-dose-only effect, or another doubt; inactive means no such curve, though single readings can be large; an effect the other way counts as inactive or inconclusive.
# Sequences of proteins named here, by UniProt entry; tags and fusion partners are left off. A change or cut given only in a name is not applied to a line headed by its entry.
# UniProt P19793: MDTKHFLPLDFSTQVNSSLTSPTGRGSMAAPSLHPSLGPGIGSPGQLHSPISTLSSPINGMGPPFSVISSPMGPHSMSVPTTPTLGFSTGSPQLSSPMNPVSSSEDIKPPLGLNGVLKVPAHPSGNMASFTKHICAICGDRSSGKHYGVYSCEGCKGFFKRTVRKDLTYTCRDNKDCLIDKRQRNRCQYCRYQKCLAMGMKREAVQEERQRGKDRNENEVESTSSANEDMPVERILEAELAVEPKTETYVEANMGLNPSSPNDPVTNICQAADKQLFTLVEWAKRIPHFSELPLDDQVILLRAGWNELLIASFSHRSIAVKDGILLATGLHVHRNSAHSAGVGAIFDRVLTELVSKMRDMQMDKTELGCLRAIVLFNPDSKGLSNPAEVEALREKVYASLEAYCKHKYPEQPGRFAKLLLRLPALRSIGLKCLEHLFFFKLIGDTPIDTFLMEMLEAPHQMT
# UniProt P08659, whole entry, looked up: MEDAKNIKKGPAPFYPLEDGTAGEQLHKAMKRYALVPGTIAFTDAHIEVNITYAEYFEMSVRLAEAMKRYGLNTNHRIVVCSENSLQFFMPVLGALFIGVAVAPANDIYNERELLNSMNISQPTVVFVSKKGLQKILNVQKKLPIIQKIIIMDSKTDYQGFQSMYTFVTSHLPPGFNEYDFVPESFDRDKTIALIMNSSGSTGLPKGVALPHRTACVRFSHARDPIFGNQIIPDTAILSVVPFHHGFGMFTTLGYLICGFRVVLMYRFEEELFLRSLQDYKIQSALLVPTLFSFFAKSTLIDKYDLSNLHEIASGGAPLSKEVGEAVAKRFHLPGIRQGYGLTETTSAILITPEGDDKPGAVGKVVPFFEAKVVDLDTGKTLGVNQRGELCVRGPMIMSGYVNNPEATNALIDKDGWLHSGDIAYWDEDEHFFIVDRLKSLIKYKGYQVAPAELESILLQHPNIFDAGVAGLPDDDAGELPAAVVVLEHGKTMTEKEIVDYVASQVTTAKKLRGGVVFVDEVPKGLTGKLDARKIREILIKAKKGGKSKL
# UniProt P01375, whole entry, looked up: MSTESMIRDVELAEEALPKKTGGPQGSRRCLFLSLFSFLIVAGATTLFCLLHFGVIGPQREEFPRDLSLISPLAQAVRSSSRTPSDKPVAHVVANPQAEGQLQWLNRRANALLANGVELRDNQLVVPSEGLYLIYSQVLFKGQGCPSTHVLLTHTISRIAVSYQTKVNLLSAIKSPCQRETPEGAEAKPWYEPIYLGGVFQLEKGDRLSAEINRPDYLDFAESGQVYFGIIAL
# UniProt Q07869: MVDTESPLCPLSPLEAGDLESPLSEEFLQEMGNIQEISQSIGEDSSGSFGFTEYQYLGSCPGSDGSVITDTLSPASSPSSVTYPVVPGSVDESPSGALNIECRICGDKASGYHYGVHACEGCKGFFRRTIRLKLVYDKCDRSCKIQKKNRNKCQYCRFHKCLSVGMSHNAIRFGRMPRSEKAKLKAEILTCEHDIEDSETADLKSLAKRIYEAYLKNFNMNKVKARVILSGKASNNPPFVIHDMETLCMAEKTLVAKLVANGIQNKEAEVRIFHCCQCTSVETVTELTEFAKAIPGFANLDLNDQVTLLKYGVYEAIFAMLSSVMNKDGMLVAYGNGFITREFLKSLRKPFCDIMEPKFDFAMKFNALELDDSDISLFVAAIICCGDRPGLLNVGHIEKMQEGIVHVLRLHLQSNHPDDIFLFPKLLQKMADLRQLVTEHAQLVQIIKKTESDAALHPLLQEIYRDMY
# UniProt P11712, whole entry, looked up: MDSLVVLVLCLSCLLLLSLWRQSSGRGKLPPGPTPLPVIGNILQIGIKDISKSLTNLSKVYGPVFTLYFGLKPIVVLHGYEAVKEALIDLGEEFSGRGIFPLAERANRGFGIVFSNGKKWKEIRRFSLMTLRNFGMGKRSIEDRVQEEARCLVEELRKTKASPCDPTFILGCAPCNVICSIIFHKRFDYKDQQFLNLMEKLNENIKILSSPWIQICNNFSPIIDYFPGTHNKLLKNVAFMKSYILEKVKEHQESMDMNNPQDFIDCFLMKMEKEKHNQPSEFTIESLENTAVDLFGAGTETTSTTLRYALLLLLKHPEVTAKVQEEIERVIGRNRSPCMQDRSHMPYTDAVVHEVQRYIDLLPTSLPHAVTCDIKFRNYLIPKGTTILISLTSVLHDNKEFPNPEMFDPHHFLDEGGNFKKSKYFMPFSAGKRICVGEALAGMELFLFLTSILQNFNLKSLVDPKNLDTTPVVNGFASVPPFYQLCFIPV
# UniProt P05177, whole entry, looked up: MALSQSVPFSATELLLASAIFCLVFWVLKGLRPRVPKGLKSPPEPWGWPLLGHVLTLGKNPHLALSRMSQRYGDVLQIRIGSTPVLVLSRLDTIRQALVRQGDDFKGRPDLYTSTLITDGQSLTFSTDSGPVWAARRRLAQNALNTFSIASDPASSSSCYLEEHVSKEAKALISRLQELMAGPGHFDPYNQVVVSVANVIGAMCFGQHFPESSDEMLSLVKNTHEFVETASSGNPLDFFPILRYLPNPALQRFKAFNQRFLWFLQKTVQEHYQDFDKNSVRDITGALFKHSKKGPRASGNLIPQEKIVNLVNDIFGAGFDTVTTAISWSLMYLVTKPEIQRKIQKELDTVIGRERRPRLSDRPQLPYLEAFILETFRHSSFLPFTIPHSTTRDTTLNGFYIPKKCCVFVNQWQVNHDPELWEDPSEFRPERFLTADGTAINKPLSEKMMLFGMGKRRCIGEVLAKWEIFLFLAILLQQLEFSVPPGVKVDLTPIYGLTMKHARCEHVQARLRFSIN
# UniProt P03372, whole entry, looked up: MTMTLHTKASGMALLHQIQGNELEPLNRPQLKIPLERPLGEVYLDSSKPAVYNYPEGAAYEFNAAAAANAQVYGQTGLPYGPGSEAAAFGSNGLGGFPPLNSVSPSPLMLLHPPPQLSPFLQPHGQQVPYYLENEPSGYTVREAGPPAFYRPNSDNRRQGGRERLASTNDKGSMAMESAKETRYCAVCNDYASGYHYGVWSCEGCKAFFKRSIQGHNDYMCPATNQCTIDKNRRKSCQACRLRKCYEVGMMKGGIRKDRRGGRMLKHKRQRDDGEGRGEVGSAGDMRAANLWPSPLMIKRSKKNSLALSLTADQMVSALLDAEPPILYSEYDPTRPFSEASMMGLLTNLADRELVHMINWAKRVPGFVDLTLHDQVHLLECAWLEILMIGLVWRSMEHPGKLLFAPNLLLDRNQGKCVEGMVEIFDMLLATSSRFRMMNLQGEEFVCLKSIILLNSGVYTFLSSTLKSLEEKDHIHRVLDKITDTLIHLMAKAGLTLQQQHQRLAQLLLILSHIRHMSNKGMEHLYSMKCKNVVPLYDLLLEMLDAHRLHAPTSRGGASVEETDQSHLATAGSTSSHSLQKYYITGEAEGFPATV
# UniProt P10275: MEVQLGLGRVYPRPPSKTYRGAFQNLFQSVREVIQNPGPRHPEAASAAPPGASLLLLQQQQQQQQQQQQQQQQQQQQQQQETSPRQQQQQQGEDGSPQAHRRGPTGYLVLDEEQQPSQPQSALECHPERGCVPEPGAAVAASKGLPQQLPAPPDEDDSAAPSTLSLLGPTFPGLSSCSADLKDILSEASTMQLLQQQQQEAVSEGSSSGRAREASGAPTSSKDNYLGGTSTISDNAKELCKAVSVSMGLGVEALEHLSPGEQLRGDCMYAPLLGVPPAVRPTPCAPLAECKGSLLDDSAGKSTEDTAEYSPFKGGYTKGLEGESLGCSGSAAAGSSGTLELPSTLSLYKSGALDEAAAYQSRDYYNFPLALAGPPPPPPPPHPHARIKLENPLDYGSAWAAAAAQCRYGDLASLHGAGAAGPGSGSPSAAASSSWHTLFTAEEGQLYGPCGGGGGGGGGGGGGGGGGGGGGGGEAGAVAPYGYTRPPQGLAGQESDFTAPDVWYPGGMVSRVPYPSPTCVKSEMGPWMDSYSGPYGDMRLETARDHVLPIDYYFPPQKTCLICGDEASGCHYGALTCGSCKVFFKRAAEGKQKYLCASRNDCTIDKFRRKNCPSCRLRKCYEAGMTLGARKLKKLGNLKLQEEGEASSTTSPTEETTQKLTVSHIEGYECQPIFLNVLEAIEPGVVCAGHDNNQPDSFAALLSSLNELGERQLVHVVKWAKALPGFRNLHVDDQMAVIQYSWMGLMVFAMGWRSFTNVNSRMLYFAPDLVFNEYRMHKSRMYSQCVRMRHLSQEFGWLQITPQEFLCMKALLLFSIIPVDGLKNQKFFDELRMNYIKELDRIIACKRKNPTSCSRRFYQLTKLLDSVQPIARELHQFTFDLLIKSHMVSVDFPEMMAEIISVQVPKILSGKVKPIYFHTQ
# UniProt Q03181: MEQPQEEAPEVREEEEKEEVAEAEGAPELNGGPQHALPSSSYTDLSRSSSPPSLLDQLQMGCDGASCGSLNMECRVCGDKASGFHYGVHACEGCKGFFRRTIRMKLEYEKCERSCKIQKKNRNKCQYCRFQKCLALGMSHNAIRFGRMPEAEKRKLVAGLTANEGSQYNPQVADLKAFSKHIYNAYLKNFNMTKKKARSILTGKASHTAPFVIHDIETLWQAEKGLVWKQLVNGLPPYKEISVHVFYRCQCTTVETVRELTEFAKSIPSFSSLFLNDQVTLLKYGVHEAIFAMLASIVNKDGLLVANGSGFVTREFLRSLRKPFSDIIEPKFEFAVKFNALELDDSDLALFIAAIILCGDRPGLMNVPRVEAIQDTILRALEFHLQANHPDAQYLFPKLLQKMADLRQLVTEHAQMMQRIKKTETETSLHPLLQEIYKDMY
# Experiments:
# [1] = qHTS of pediatric cancer cell lines to identify multiple opportunities for drug repurposing: Confirmatory screen for RD cells (AID 1347124); settings: RD rhabdomyosarcoma cell viability; activity change, negative = cytotoxic: at 45.9 µM (top of the series) unless noted;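 further: potency means the concentration at half of the fitted maximal effect; cells exposed to compound for 48 h before viability readout; nearly all actives have a fitted effect of over 65% in size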
# Procedure, shortened: (§1)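 Cells (500-1,000/well) in growth media were settled 5 h at 37 degrees C, then given compounds for 48 h. Viability was read as CellTiter-Glo luminescence. Primary runs used MIPE at 11 points (0.78 nM-46 µM) and NPC at 8 points (0.59 nM-46 µM); follow-ups used 11 points.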
# [2] = qHTS of pediatric cancer cell lines to identify multiple opportunities for drug repurposing: Confirmatory screen for Rh30 cells (AID 1347126); settings: Rh30 rhabdomyosarcoma cell viability; activity change, negative = cytotoxic: at 45.9 µM (top of the series); further: potency means the concentration at half of the fitted maximal effect; nearly all actives have a fitted effect of over 55% in size
# Procedure, shortened: as §1
# [3] = Primary qHTS for inhibitors of La Crosse Virus (LACV) - induced cell death in SH-SY5Y cells (AID 1508616);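 further: top concentration of the series differs between compounds; 0% = infected DMSO wells and 100% = uninfected DMSO wells; higher means more rescue of cells from virus-induced death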
# Procedure, shortened: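 Protection against LACV-induced cell death is scored in SH-SY5Y cells exposed to compounds and virus (0.01 MOI) for 6 days. Data normalized to virus-infected DMSO wells and virus-free DMSO wells.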
# [4] = Cell Viability - SH-SY5Y (AID 544); settings: SH-SY5Y neuroblastoma cell viability; at 92.2 µM (top of the series);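 further: cells exposed to compound for 40 hours; 0% = DMSO alone and -100% = 100 µM tamoxifen; nearly all actives have a fitted effect of over 55% in size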
# Procedure, shortened: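 Luminescent ATP read-out (CellTiter-Glo) measures loss of viable SH-SY5Y neuroblastoma cells after 40 hr compound exposure at 37 °C. AC50 values derive from standard Hill modelling of qHTS concentration-response data.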
# [5] = Cell Viability - LYMP2-004 (AID 966);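 further: potency means the concentration at half of the fitted maximal effect; cells exposed to compound for 24 h; nearly all actives have a fitted effect of over 65% in size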
# Procedure, shortened: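 Cells seeded 2500/well, rested 5 hr at 37 C, dosed across a concentration series, incubated 24 hr at 37 C, then CellTiter-Glo added for 30 min at room temperature and luminescence read. Hill fitting gave AC50.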
# [6] = Cell Viability - LYMP2-023 (AID 975);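 further: cellular ATP measured by luciferase luminescence as viability proxy; cells exposed to compound for 24 hours at 37 °C; plate controls were DMSO only for no effect and 92 µM tetraoctylammonium bromide control for full effect; nearly all actives have a fitted effect of over 55% in size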
# Procedure, shortened: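 2500 cells/well, 5 hr 37 C; cpd 24 hr 37 C; CellTiter-Glo, 30 min RT; luminescence. qHTS conc-response, Hill fit -> AC50. Pos ctrl tetraoctylammonium bromide.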
# [7] = Cell Viability - LYMP2-025 (AID 976);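 further: cells exposed to compound for 24 h at 37 °C; plate controls were DMSO only for no effect and tetraoctylammonium bromide control for full effect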
# Procedure, shortened: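 Seed 2500 LYMP2-025 cells/well; 5 hr at 37 C; add compound; 24 hr at 37 C; add CellTiter-Glo; 30 min RT; read luminescence. AC50 from Hill-modelled concentration-response.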
# [8] = biological target: Retinoic acid receptor RXR-alpha (Homo sapiens) (UniProt P19793); assay: qHTS assay for small molecule agonists of retinoid X receptor alpha signaling (AID 588544; calls by dose curve;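 further: 0% = DMSO basal wells and 100% = reference agonist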); settings: HEK293T RXRa-UAS-bla, beta-lactamase reporter, 18 h; activation: at 76.7 µM (top of the series)
# [9] = biological target: Luciferin 4-monooxygenase (Photinus pyralis) (UniProt P08659); assay: Biochemical firefly luciferase enzyme assay for NPC (AID 624030); further: potency means the concentration at half of the fitted maximal effect; nearly all actives have a fitted effect of over 70% in size
# Procedure, shortened: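 Counter-screen for direct inhibition of the luciferase enzyme by approved-drug library compounds, run at 10 nM enzyme in 50 mM Tris acetate (final). Luminescence was read within 5 min of enzyme-buffer addition and normalized to PTC124 versus DMSO (0%).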
# [10] = biological target: Tumor necrosis factor (Homo sapiens) (UniProt P01375); assay: qHTS assay to identify small molecules that stimulate Tumor Necrosis Factor-alpha (TNF-alpha) secretion (AID 651757; active means well fitted curve in the direction sought with a large enough effect in the signal ratio; inconclusive means small, poorly fitted or top-dose-only effect, or a change in a side signal; inactive means no such curve, though single readings can be large or run the other way; the % refers to the signal ratio; further: 0% is about no effect); settings: Human cells, HTRF 665/615 ratio; activation (TNF-alpha secretion): at 92.2 µM (top of the series)
# Procedure, shortened: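 Read-out is HTRF, a TR-FRET sandwich of cryptate- and XL665-labeled anti-TNF-alpha antibodies detecting cytokine secreted by THP-1 cells. Cells had been incubated with test compounds at 37 C for 17 hrs beforehand.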
# [11] = qHTS assay to identify small molecules that stimulate interleukin-8 (IL-8) secretion (AID 651758; active means well fitted activation curve with a large enough effect in the signal ratio; inconclusive means small, poorly fitted or top-dose-only effect, or effect the other way, or a change in a side signal; the % refers to the signal ratio; further: potency means the concentration at half of the fitted maximal effect; on activation: 0% is about no effect); settings: HTRF ratio (665/615); activation: at 92.2 µM (top of the series)
# Procedure, shortened: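 THP-1, 2000 cells/well; cpd 16 h, 37 C; add cryptate + XL665 anti-IL-8 Abs; RT 1-3 h; TR-FRET read.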
# [12] = biological target: Peroxisome proliferator-activated receptor alpha (Homo sapiens) (UniProt Q07869); assay: qHTS assay for small molecule agonists of the peroxisome proliferator-activated receptor alpha (PPARalpha) signaling pathway (AID 651778); settings: PathHunter PPARalpha complementation, chemiluminescence, 6 h; further: potency means the concentration at half of the fitted maximal effect
# Procedure, shortened: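 Cells plated at 2,000/well and held overnight at 37 C, 5% CO2, then compound added by pin tool for 6 hr; after PathHunter detection reagent and 60 min at room temperature, chemiluminescence from enzyme complementation was read.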
# [13] = qHTS assay for small molecule antagonists of the retinoid-related orphan receptor gamma (ROR-gamma) signaling pathway - cell viability counter screen (AID 720652; active means well fitted curve in the direction sought with a large enough effect in the repeat runs; inconclusive means weak or mixed curves; inactive means no such curve, though single readings can be large; an effect the other way counts as inactive or inconclusive;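 further: compound exposure lasted 16 hr before ATP read; on the % scale 0 is the no-effect control and ±100 the full control effect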)
# Procedure, shortened: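 Luminescence from CellTiter-Glo after 30 min at room temperature reported cellular ATP as the cytotoxicity measure. Cells were the CHO reporter line with doxycycline-induced ROR-gamma expression, exposed to compound for 16 hr at 37 C.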
# [14] = biological target: Cytochrome P450 2C9 (Homo sapiens) (UniProt P11712); assay: qHTS for inhibitors of CYP2C9 against the NCATS DSHEA and TCM libraries (AID 1919973);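 further: luminogenic pro-luciferin CYP2C9 substrate turned into luciferin with NADPH regeneration; on the % scale 0 is the no-effect control and ±100 the full control effect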
# Procedure, shortened: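 Read-out is luminescence after P450-Glo detection (30 min, RT). Before that: 15 min compound–enzyme preincubation, then 30-45 min reaction with 1x NADPH regeneration solution, substrate concentration isoform-specific.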
# [15] = biological target: Cytochrome P450 1A2 (Homo sapiens) (UniProt P05177); assay: qHTS for inhibitors of CYPIA2 against the NCATS DSHEA and TCM libraries (AID 1919976); further: potency means the concentration at half of the fitted maximal effect
# Procedure, shortened: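 CYP1A2 + luciferin substrate, 100 mM KPO4-type buffer; cmpd 15 min RT; 1x NADPH regen, 30-45 min RT dark; detection reagent 30 min RT; luminescence. Minus-enzyme wells as background; furafylline intraplate control.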
# [16] = biological target: Estrogen receptor (Homo sapiens) (UniProt P03372); assay: qHTS assay for small molecule antagonists of estrogen receptor alpha signaling (AID 588513; active means well fitted curve in the direction sought with a large enough effect in the signal ratio, with a control signal flat, not every such curve was filed as active; inconclusive means small, poorly fitted or top-dose-only effect, or effect the other way, or a change in a side signal; inactive means no such curve, though single readings can be large or run the other way; the % refers to the signal ratio; further: potency means the concentration at half of the fitted maximal effect); settings: ER-alpha-UAS-bla HEK293, beta-lactamase ratio, antagonist mode; activity, negative = inhibition: at 76.9 µM (top of the series)
# Procedure, shortened: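 Beta-lactamase reporter, antagonist mode, HEK 293 GripTite cells; 0.5nM E2 stimulus, 18 h, 37 C; CCF4 dye 2 h RT; fluorescence. IC50 and efficacy from Hill fits, normalized to E2 and DMSO.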
# [17] = biological target: Androgen receptor (Homo sapiens) (UniProt P10275); assay: qHTS assay for small molecule agonists of androgen receptor signaling (AID 588515; active means well fitted curve in the direction sought with a large enough effect in the signal ratio, with a control signal flat; inconclusive means small, poorly fitted or top-dose-only effect, or effect the other way, or a change in a side signal; inactive means no such curve, though single readings can be large or run the other way; the % refers to the signal ratio; further: on the % scale 0 is the no-effect control and ±100 the full control effect); settings: AR-UAS-bla HEK293, beta-lactamase ratio, agonist 16 h; activation: stronger effect = higher value
# Procedure, shortened: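 EC50 and efficacy came from Hill fits of titrations (up to 92 uM) normalized to 30 nM R1881 as 100% and DMSO as 0%. Compound exposure was 16 h at 37 C on AR-UAS-bla HEK293 cells, with a 405/460/530 nm CCF4 fluorescence read.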
# [18] = biological target: Androgen receptor (Homo sapiens) (UniProt P10275); assay: qHTS assay for small molecule antagonists of androgen receptor signaling (AID 588516; active means well fitted curve in the direction sought with a large enough effect in the signal ratio, with a control signal flat, not every such curve was filed as active; inconclusive means small, poorly fitted or top-dose-only effect, or effect the other way, or a change in a side signal; inactive means no such curve, though single readings can be large or run the other way; the % refers to the signal ratio; further: potency means the concentration at half of the fitted maximal effect); settings: AR-UAS-bla HEK293, beta-lactamase ratio, antagonist mode, 16 h; activity change, negative = inhibition: at 76.8 µM (top of the series)
# Procedure, shortened: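 Antagonist-mode qHTS: inhibition of R1881 (10 nM)-driven beta-lactamase expression in GripTite HEK 293 cells is measured after 16 h; values are Hill-derived IC50s normalized between R1881 and DMSO wells.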
# [19] = biological target: Peroxisome proliferator-activated receptor delta (Homo sapiens) (UniProt Q03181); assay: qHTS assay for small molecule agonists of peroxisome proliferator-activated receptor delta signaling (AID 588534; calls by dose curve; further: potency means the concentration at half of the fitted maximal effect); settings: HEK293T PPARdelta-UAS-bla, beta-lactamase ratio, 18 h; activation: at 76.7 µM (top of the series)
# Procedure, shortened: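 Fluorescence from CCF4 substrate cleavage by beta-lactamase reporter, read 2 hrs at RT, measured agonist activity. Compounds were tested with 18 hrs exposure at 37 C. Concentration-response data fitted to Hill equation.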
# [20] = biological target: Vitamin D3 receptor (Homo sapiens) (UniProt P11473); assay: qHTS assay for small molecule antagonists of vitamin D receptor signaling (AID 588541; calls by dose curve; further: potency means the concentration at half of the fitted maximal effect); settings: HEK293T VDR-UAS-bla, beta-lactamase ratio, antagonist mode; activity change, negative = inhibition: at 76.7 µM (top of the series)
compound,measurement,setting,value
CCCCC(=O)OCC(=O)[C@H]1[C@H](C)C[C@H]2[C@@H]3C[C@H](F)C4=CC(=O)C=C[C@]4(C)[C@@]3(F)[C@@H](O)C[C@@]21C,Potency,[1],"inconclusive: 20.8 µM [cytotoxic, single point]"
same,Potency,[2],active: 14.7 µM
same,Potency,[3],inactive
CCCCCCCCCCCCOS(=O)(=O)O,"viability change, negative = cytotoxic",[4],inactive: -11.6% and inactive: -1.46%
same,Potency,[5],"inconclusive: 50.1 µM [rising, single point]"
same,Potency,[6],inactive
same,Potency,[7],inactive
same,Potency,[8],inactive
same,Potency,[9],"inconclusive: 32.2 µM [inhibitor, partial curve]"
same,Potency,[10],inactive
same,Potency,[11],"inactive and inconclusive: 75 µM [activator, single point]"
same,Potency,[12],"inconclusive: 44.7 µM [activator, partial curve]"
same,Potency,[13],inactive
CC(C)=CCC[C@](C)(O[C@@H]1O[C@H](CO[C@@H]2O[C@H](CO)[C@@H](O)[C@H](O)[C@H]2O)[C@@H](O)[C@H](O)[C@H]1O)C1CC[C@]2(C)[C@@H]1[C@H](O)CC1[C@@]3(C)CC[C@H](O[C@@H]4O[C@H](CO)[C@@H](O)[C@H](O)[C@H]4O[C@@H]4O[C@H](CO)[C@@H](O)[C@H](O)[C@H]4O)C(C)(C)[C@@H]3CC[C@]12C (stereo not given in full),Potency,[14],inactive
same,Potency,[15],"inconclusive: 1 µM [inhibitor, full curve]"
O=S(=O)(c1ccccc1)N(CC(F)(F)F)c1ccc(C(O)(C(F)(F)F)C(F)(F)F)cc1,Potency,[16],"inconclusive: 44.7 µM [falling, partial curve, poor fit]"
same,activation,[17],inconclusive: -9.66%
same,Potency,[18],active: 44.7 µM
same,Potency,[19],"inconclusive: 44.7 µM [fluorescent, side channel, single point]"
same,Potency,[20],"inconclusive: 50.1 µM [inhibitor, single point]"

# Source: PubChem BioAssay (NCATS)
